Literature values, collected in patent publication US8758474B2, “Urea fertilizer containing central volatilization inhibitor particles to reduce release of ammonia and processes for making same” (NFT Industries, LLC, priority 2010, dated 2014).
For at least one compound, name, drawing or mass did not settle the structure.

Conditions: cited from earlier work

## NC(N)=O [Urea]
  critical relative humidity: 72%
